In PubChem BioAssay AID651640 (Broad Institute, 2012):
Among all 350,000 compounds or so, about 6,000 (1.7%) were called active. Inconclusive means that the source gave no clear call. Such entries were picked first, then a sample of the others. Rule as the data show it: active = CPE inhibition above about 20% (passing the limit was not always enough); inconclusive = no clear call, values can overlap the other calls; tested in BHK-21 cells.

test: protection of cells from dengue 2 killing – plate reader, single concentration, primary screen (AID 651640); conditions: DENV2-infected cells, cytopathic effect rescue, at 9.99 µM, stronger effect = higher value;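 also: 0% = median of neutral control wells and 100% = median of positive control wells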

Compound	CPE inhibition
Cc1ccc(S(=O)(=O)N(C)C[C@@H]2OCCCC[C@@H](C)Oc3ccc(NC(=O)Nc4ccc(C(F)(F)F)cc4)cc3C(=O)N([C@@H](C)CO)C[C@H]2C)cc1	active: 53.1%
CC(C)CC#Cc1ccc2c(c1)O[C@@H](CN(C)C(=O)Nc1ccccc1F)[C@@H](C)CN([C@H](C)CO)S2(=O)=O	inconclusive: 24.9%
COCCNC(=S)N(CCc1c(C)[nH]c2ccccc12)Cc1cccnc1	inconclusive: 30.2%
COc1cccc(C(=O)NNS(=O)(=O)c2ccccc2)c1	inconclusive: 38%
C[C@H]1CCCCO[C@H](CN(C)S(C)(=O)=O)[C@@H](C)CN([C@@H](C)CO)C(=O)c2cc(NS(C)(=O)=O)ccc2O1	inconclusive: 85.8%
CCOC(=O)c1ccc(NC(=O)c2nc[nH]c2C(=O)NC2CCN(C(=O)OC(C)(C)C)CC2)cc1	active: 68.5%
Cc1noc(C)c1NC(=O)N(C)C[C@H]1OCCCC[C@@H](C)Oc2ccc(NS(C)(=O)=O)cc2C(=O)N([C@H](C)CO)C[C@H]1C	inactive: 5.81%
CC1(C(=O)NS(=O)(=O)c2ccccc2)CCN1C(=O)C/C=C/c1ccccc1 (stereo unspecified)	inconclusive: 45%
C/C(=N\NC(N)=S)c1ccccc1	inconclusive: 45.5%
Cc1noc(C)c1NC(=O)N(C)C[C@H]1Oc2ccc(NC(=O)NC3CCCCC3)cc2C(=O)N([C@@H](C)CO)C[C@H]1C	inconclusive: 22.5%
CO[C@@H]1CN(C)C(=O)c2cc(NC(=O)Nc3cccc(F)c3)ccc2OC[C@@H](C)N(C(C)=O)C[C@@H]1C	inactive: 1.15%
Cc1ccc(-c2csc(NC(=O)c3ccc([N+](=O)[O-])o3)n2)cc1	inactive: -1.41%
CNC[C@H]1OCCCC[C@H](C)Oc2ccc(NC(=O)Nc3ccc4c(c3)OCO4)cc2C(=O)N([C@@H](C)CO)C[C@@H]1C	inconclusive: 23%
COC(=O)CNC(=O)c1ccccc1	inconclusive: 22.6%
COc1ccc(C#Cc2cnc3c(c2)C(=O)N([C@H](C)CO)C[C@H](C)[C@H](CN(C)C(=O)Nc2ccc(F)cc2)O3)cc1OC	inconclusive: 35.4%
CCn1c(SCC(=O)Nc2ccc(N3CCOCC3)cc2)nnc1C1CC1	inconclusive: 23.8%
COc1ccc(S(=O)(=O)N2CCCCC2)cc1NC(=O)CCNC(=O)c1ccc(Br)cc1	inconclusive: 38.2%
CC(C)N1C(=O)C2C(c3ccccc3O)NC(C)(C(=O)O)C2C1=O (stereo unspecified)	inconclusive: 47.6%
C=CCn1ncc(OC)c(Cl)c1=O	inactive: 1.21%
CCC(=O)N1CC2(C1)[C@H](c1ccccc1)[C@@H](CO)N2CC1CCCC1	inconclusive: 23.3%
CN(C)c1ccc(C(=O)N2CCCC2)cc1	inconclusive: 32.1%
O=C(CCNS(=O)(=O)c1ccc(Br)s1)NCc1ccc(F)cc1	inconclusive: 72.7%
O=C(c1cc(C2CC2)nn1-c1ccccc1)N1CCN(S(=O)(=O)c2cccc(F)c2)CC1	inconclusive: 56.8%
O=C(CNC(=O)c1ccc2c(c1)OCO2)Nc1cccc(Br)c1	inconclusive: 31.5%
C/C=C/c1ccc(C2[C@H]3CNC[C@@H]2N3Cc2ccc3c(c2)OCO3)cc1 (stereo partly specified)	inconclusive: 22.8%
Cc1noc(C)c1NC(=O)Nc1ccc2c(c1)CC(=O)N([C@H](C)CO)C[C@@H](C)[C@H](CN(C)C(=O)Nc1c(C)noc1C)O2	inactive: -9.66%

Compound	CPE inhibition
CN(/N=C/c1ccc(Cl)cc1)c1ncc(Cl)cc1C(F)(F)F	inconclusive: 30.9%
CCOC(=O)NC(=O)C(=CNc1cccc(C)c1)C(=O)NC(=O)OCC	inconclusive: 25.6%
COc1ccc(OC)c(NC(=O)COC(=O)C2CCN(C(=O)c3ccc(Cl)cc3)CC2)c1	inconclusive: 24.4%
Cn1c(Cn2c(=O)sc3ccccc32)nnc1SCC(=O)NCc1ccco1	inactive: 1.06%
O=C(O)CSc1nc2ccccc2n1-c1ccccc1	inactive: 2.87%
O=C(Nc1ccc2c(c1)[C@H]1C[C@@H](CC(=O)N3CCOCC3)O[C@H](CO)[C@H]1O2)Nc1ccccc1F	inconclusive: 45.3%
COC(C/C=C/[C@H](O)COCc1ccccc1)OC	inconclusive: 22.7%
O=C(Nc1nnc(SCc2cccc(F)c2)s1)c1ccco1	inconclusive: 23.2%
NC(=O)CSc1nnc(NC(=O)C2CC(=O)N(c3ccc(F)cc3)C2)s1 (stereo unspecified)	inactive: -3.69%
CN(C)Cc1cn(CC[C@@H]2CC[C@@H](N)[C@H](CO)O2)nn1	inactive: -3.72%
CCCn1cc(S(=O)(=O)c2ccc(Cl)cc2)c(=O)c2cc(OC)ccc21	inactive: -0.85%
CNC(=O)c1[nH]cnc1C(=O)Nc1ccc(Cl)cc1	active: 41.2%
CC(C)c1ccc(CNc2nc3nc4c(c(=O)n3[nH]2)CCC4)cc1	inactive: 6.78%
COCCN1C(=S)NC(c2cccc(C(F)(F)F)c2)C(C(=O)N2CCOCC2)=C1C (stereo unspecified)	inconclusive: 58%
COc1ccc(CN2C[C@H](C)[C@H](OC)CN(C)C(=O)c3cc(NC(=O)c4nc5ccccc5s4)ccc3OC[C@@H]2C)cc1	active: 22%
C=CCNC(=O)c1ccccc1NC(=O)c1ccc(Cl)c(S(=O)(=O)Nc2cccc(C)c2C)c1	inconclusive: 20.9%
CC1=C(C(=O)N(C)C)CC(CC(=O)NCC2CCCCC2)C(=O)N1Cc1ccc(C(C)(C)C)cc1 (stereo unspecified)	inconclusive: 22.9%
CN(C)c1ccc(CC(=O)N2CCCCC2c2cc(C(=O)Nc3ccccc3Cl)no2)cc1 (stereo unspecified)	inactive: -1.47%
Cc1ccc2c(CC(=O)OC(C)C(=O)Nc3ncc(Cl)cc3Cl)coc2c1 (stereo unspecified)	active: 78.7%
C[C@@H]1CN([C@@H](C)CO)C(=O)c2cc(Br)cnc2O[C@@H]1CN(C)Cc1ccccn1	inconclusive: 28.4%
Cc1c(CC(Cl)(Cl)Cl)c2c(n1O)CC(C)(C)CC2=O	inactive: 7.61%
CCCCNC(=O)C1(C)CCN1C(=O)c1sccc1C (stereo unspecified)	inconclusive: 22.2%
COc1ccc(N2CCN(c3cc(C(=O)NC4CCCCC4)ncn3)CC2)cc1OC	active: 22.2%
COCCn1cnc2c1c(=O)n(CC(=O)O)c(=O)n2Cc1ccccc1	inconclusive: 35.7%
COC(=O)C1=C(C)N(Cc2ccc(Br)cc2)C(=S)NC1c1cccc(F)c1 (stereo unspecified)	active: 25.9%
CCOC(=O)C1(CCOc2ccccc2)CCN(Cc2ccc(OC)c(COC)c2)CC1	inconclusive: 24.8%

Compound	CPE inhibition
COc1ccc(C#Cc2ccc3c(c2)O[C@H](CN(C)C)[C@@H](C)CN([C@H](C)CO)S3(=O)=O)cc1	inconclusive: 25.3%
N#C[C@@H]1[C@@H](c2ccc(-c3ccccc3)cc2)[C@@H](CO)N1C(=O)Cc1ccncc1	inactive: -7.05%
C/C=C/c1ccc2c(c1)[C@H]1[C@H](CCN1Cc1ccc(F)cc1)[C@H](CO)N2	active: 37.9%
CCOc1ccc(OCCOCCN2CCCC2)cc1	inconclusive: 50.3%
O=[N+]([O-])c1cc(S(=O)(=O)N2CCCC2)ccc1OCc1ccccc1	inconclusive: 26.2%
COc1ccc(NC(=O)COc2ccc3c(C)cc(=O)oc3c2)cc1S(=O)(=O)N1CCCCC1	inconclusive: 22.1%
CN1c2ccc(-c3cccc(C#N)c3)cc2[C@@H]2[C@@H](CCN2S(=O)(=O)c2cccc(F)c2)[C@@H]1CO	active: 72.7%
Cc1ccc(F)cc1S(=O)(=O)N[C@H]1CCN(Cc2ccc(OC(C)C)cc2)C1	active: 29.1%
Cc1cc(CN(Nc2ccccc2)c2ccccc2)cc(C)n1	inconclusive: 64.3%
C[C@H](CO)N1C[C@H](C)[C@@H](CN(C)C(=O)Cc2ccccc2)OCCCC[C@H](C)Oc2ccc(NS(=O)(=O)c3ccc(F)cc3)cc2C1=O	active: 126%
COc1cc(OC)c(C(=O)Nc2cc(S(=O)(=O)N3CCOCC3)ccc2N2CCOCC2)cc1OC	inconclusive: 29.7%
O=C(Nc1ccnn1C1CCN(C(=O)c2ccc(Cl)c(F)c2)CC1)C1CCOC1 (stereo unspecified)	inconclusive: 48.9%
CCN1C(=O)[C@H]2[C@@H](c3ccc(-c4ccc(Cl)c(Cl)c4)c(OC)c3)N[C@@](Cc3ccccc3)(C(=O)OC)[C@H]2C1=O	inconclusive: 41.1%
COc1ccc(N2CCN(CCCNC(=O)c3cc4sccc4n3C)CC2)cc1	inactive: 3.22%
C[C@@H]1CN([C@@H](C)CO)C(=O)c2cc(NS(=O)(=O)c3ccccc3)ccc2O[C@@H](C)CCCCO[C@@H]1CN(C)C(=O)C1CCCCC1	inactive: 17.1%
O=C(C1CCCCC1)N1CC(=O)N2[C@@H](CO)[C@@H](c3ccc(Br)cc3)[C@@H]2C1	inconclusive: 27.7%
COC(=O)c1c(NC(=O)C2CC2)sc2c1CCCC2	inconclusive: 23.4%
C[C@H](CO)N1C[C@H](C)[C@H](CN(C)C(=O)Nc2ccc3c(c2)OCO3)Oc2ccc(NC(=O)CCN3CCOCC3)cc2C1=O	inactive: 4.81%
CS(=O)(=O)Nc1ccc2c(c1)[C@H]1C[C@H](CC(=O)NC3CCCC3)O[C@H](CO)[C@H]1O2	inactive: 0.236%
COc1ccccc1C(=O)O/N=C(\c1ccccc1)c1ccncc1	inactive: -6.9%
CCOc1cc2[nH]c(=S)n(Cc3ccc(C(=O)NCCCN(CC)CC)cc3)c(=O)c2cc1OCC	inactive: 9.41%
O=C(NCC[C@H]1CC[C@@H](NC(=O)c2cccnc2)[C@H](CO)O1)Nc1ccc(F)cc1	active: 20.6%
N=c1c(C(=O)NCc2ccco2)cc2c(=O)n3ccccc3nc2n1C1CCCC1	inactive: 4.78%
Nc1ccc(N2C(=O)c3ccccc3C2=O)c(Cl)c1	active: 38.5%

Laid out differently: entries from further up.
CCOC(=O)c1ccc(NC(=O)c2nc[nH]c2C(=O)NC2CCN(C(=O)OC(C)(C)C)CC2)cc1
  CPE inhibition: active: 68.5%
Cc1ccc(F)cc1S(=O)(=O)N[C@H]1CCN(Cc2ccc(OC(C)C)cc2)C1
  CPE inhibition: active: 29.1%
COc1ccccc1C(=O)O/N=C(\c1ccccc1)c1ccncc1
  CPE inhibition: inactive: -6.9%
